We go through 54 sequences from article PMC7819943, “Rice protein-binding microarrays: a tool to detect cis-acting elements near promoter regions in rice”.

Protein sequences, listed by entry. Tags and fused reporters are not part of them.
UniProt Q0JBA9, entry or part of it: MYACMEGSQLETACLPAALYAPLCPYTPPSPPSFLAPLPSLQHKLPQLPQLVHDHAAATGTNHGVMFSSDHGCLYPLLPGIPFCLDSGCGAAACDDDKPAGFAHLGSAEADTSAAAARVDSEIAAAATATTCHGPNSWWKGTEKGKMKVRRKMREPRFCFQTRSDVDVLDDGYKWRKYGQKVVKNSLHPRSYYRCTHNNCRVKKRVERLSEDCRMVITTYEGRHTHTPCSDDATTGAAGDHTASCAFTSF

The list shows a part of the results.

This assay deals with OsWRKY34 (Oryza sativa, UniProt Q0JBA9 1-250). In words: protein-binding microarray (RPBM); PBS, 2% BSA, 51.3 ng/ul salmon testes DNA, 50 uM zinc acetate, 200 nM TF, 25 C, 1 h; high values mean tight binding. The settings on record: protein: recombinant; tags: N-terminal polyhistidine and DsRed monomer fusion (pET32a); label: CyDye5-dUTP incorporated in the synthesized complementary strand; 3' TTTTT single-stranded linker to array surface; dsDNA, one strand shown. The method in brief:
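Transcription factors, each fused N-terminally to a polyhistidine tag and DsRed, were expressed in E. coli BL21-CodonPlus and purified on Ni–NTA. A custom Agilent array was made double-stranded by primer extension with Cy5-dUTP and blocked with 2% BSA. It was incubated with 200 nM protein in PBS, 2% BSA, salmon testes DNA and 50 µM zinc acetate at 25 °C for 1 h, then washed. The binding signal is per-feature fluorescence intensity (arbitrary units) read on an Axon 4000B scanner.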
Regarding “GCACACTTCCGTCACCTCCGTCGCCGGCGAAAATCCTCTTCGGAGTCACCTAGTGCAG”, the binding signal is 11100 fluorescence intensity (a.u.). Take “TGTCTCACTCCGTACCTTGTTCGCCGCAACGGCGTTCTCCCGGAGTCACCTAGTGCAG”: the binding signal was 8160 fluorescence intensity (a.u.). As to “AACCTTTCTATAGATTTTTTTTTTTTACAAAAACACATCACGGAGTCACCTAGTGCAG”, the binding signal is 11700 fluorescence intensity (a.u.). The value for “TCCCCGCGCCTACGTGTGCGCCATCGCCTACCGCATTCAGCGGAGTCACCTAGTGCAG” was 8800 fluorescence intensity (a.u.).

As for “TATTTTACGCTCGTATTCATGTCAGAAACATGTTTTTCTCCGGAGTCACCTAGTGCAG”, the binding signal is 8320 fluorescence intensity (a.u.). In the case of “CAAACTGTCTTATCAGAAGGCTACTATTATTGTCTTCGTCCGGAGTCACCTAGTGCAG” it was 9340 fluorescence intensity (a.u.); in that of “TATTAATCTTATGTACAGCCAGACCCTTTTTTTTTTCTTTCGGAGTCACCTAGTGCAG”, 8760 fluorescence intensity (a.u.); in that of “TTACCTGCCTTCACATTGCTGCCTCATACTCCTTTTTTTTCGGAGTCACCTAGTGCAG”, 16300 fluorescence intensity (a.u.). For the sequence “ATCTTCAACCTAACACAGCACCTAGCTAGTACTTGCATGCCGGAGTCACCTAGTGCAG”, the binding signal is 9360 fluorescence intensity (a.u.). The value for “TCGATTCCGATTGCGATTGAAGGTCTGTTCTTCTATTTATCGGAGTCACCTAGTGCAG” was 8700 fluorescence intensity (a.u.).

Regarding “TTCTCCCATTGTACGTATCTCTCAATTAATTTCGTCCTAACGGAGTCACCTAGTGCAG”, the binding signal is 15300 fluorescence intensity (a.u.). Regarding “GCCTTTCCACATTCCTGGCTCTTCTACATCCCGCTTTTCACGGAGTCACCTAGTGCAG”, the binding signal is 12000 fluorescence intensity (a.u.). The value for “GCGTCTGTATTCTCCTCAGTTGGATACTTGGATGACTCCACGGAGTCACCTAGTGCAG” was 8240 fluorescence intensity (a.u.). In the case of “GTAGTAACTGGGGATAGAAAAGGTTTATCTGTATTGTCTTCGGAGTCACCTAGTGCAG” it was 8600 fluorescence intensity (a.u.); in that of “TACCTTTGGTGCACTTTGGACCACCTTCTTTAGCTGTATTCGGAGTCACCTAGTGCAG”, 9220 fluorescence intensity (a.u.); in that of “TTGTTGAATTGCTATATGTTTGATCAATTTGATCACGTTTCGGAGTCACCTAGTGCAG”, 9060 fluorescence intensity (a.u.). In the case of “CCGCCATCGCCGCCGCCATCCGTTGACCATGGCTTCAGCCCGGAGTCACCTAGTGCAG” it was 18900 fluorescence intensity (a.u.); in that of “CCATCGCCACCGCCCGCAGCTTCACCCCGCTGCTCCGACGCGGAGTCACCTAGTGCAG”, 8480 fluorescence intensity (a.u.). For “AATTTGTTTGGCTGAGTGGCTTTACATTCATTTCTCTATACGGAGTCACCTAGTGCAG”, the binding signal was 9720 fluorescence intensity (a.u.). In the case of “TCCTACTGTAATTCGTTTCTCCTGTTTTTTCTTTCCGTTTCGGAGTCACCTAGTGCAG” it was 12700 fluorescence intensity (a.u.); in that of “CATTTCTTCTCTAGCGTTACGCTGTCCCTTCTCTCGGTGACGGAGTCACCTAGTGCAG”, 8410 fluorescence intensity (a.u.); in that of “CCTTTTCAGCCCTAGCCCGGTCCGTTGACTCCTACCTCCTCGGAGTCACCTAGTGCAG”, 12400 fluorescence intensity (a.u.). As to “CTGTTCAAATTGATATCCCTTAAGATTCGTGCTATGATTACGGAGTCACCTAGTGCAG”, the binding signal is 8820 fluorescence intensity (a.u.). In the case of “GCTCGCTCTCGCCGCCTGCCGCTCGCTTCCACCACCCGTCCGGAGTCACCTAGTGCAG” it was 8380 fluorescence intensity (a.u.).

With “GGACAGACACGACCAACCAACGCACCCCACCCAACCCAACCGGAGTCACCTAGTGCAG”, the binding signal is 8900 fluorescence intensity (a.u.).

Turning to “TTGACTTGCTTCTTATGTGAGGCTGCATTACATGTTCTACCGGAGTCACCTAGTGCAG”, the binding signal was 8710 fluorescence intensity (a.u.). Take “ACAAATCTACGTTTCATCTAGTTATATGTTGCTATATTTTCGGAGTCACCTAGTGCAG”: the binding signal is 11100 fluorescence intensity (a.u.). In the case of “GTCCACCCCTACCCACCGTTGGATCCACCGCGGCAGCCGCCGGAGTCACCTAGTGCAG” it was 9180 fluorescence intensity (a.u.); in that of “TGTGAGACGTGGGTTTGGTTTTGGCGCGGTTTGGGTCAAACGGAGTCACCTAGTGCAG”, 8030 fluorescence intensity (a.u.); in that of “TTGGGGATGACCTGGGTTGGGTGCCTTCAAATTAAATTCCCGGAGTCACCTAGTGCAG”, 10000 fluorescence intensity (a.u.). The value for “TTTATTTTTAGGGTTTGTGGTGGTCATATGAAGGGAGGAACGGAGTCACCTAGTGCAG” was 8090 fluorescence intensity (a.u.); that for “TCTTTTTTTTATCATATTTCATATTTGACCTATTTTTTTTCGGAGTCACCTAGTGCAG” was 10100 fluorescence intensity (a.u.); that for “ACCATATCTTTTGTTCTTATATATGATTATTAATATTTTCCGGAGTCACCTAGTGCAG” was 8180 fluorescence intensity (a.u.). In the case of “ATCCTAATCCGTTTTGTCATCCTCCTATTGAGCGGTGGTCCGGAGTCACCTAGTGCAG” it was 8520 fluorescence intensity (a.u.). As to “GTCTCTCTACTCCCGGATATAAACCTTTCGCGCACGGCCACGGAGTCACCTAGTGCAG”, the binding signal is 8980 fluorescence intensity (a.u.). The value for “AATAAACGTTGACCAGTATGATGTCGCCACCGATATGGACCGGAGTCACCTAGTGCAG” was 9520 fluorescence intensity (a.u.); that for “GTTACTGCACATTGACCATCGCGTTACTGCACCGTTCTGCCGGAGTCACCTAGTGCAG” was 8940 fluorescence intensity (a.u.).

As to “GGGTGTTGGTTGTGTGTGGTGGCTGCCAAATGGCTCGTGGCGGAGTCACCTAGTGCAG”, the binding signal was 9220 fluorescence intensity (a.u.). For “GTTGACTTTTTTTAAAATATGTTTGACCGTTCATATTATTCGGAGTCACCTAGTGCAG”, the binding signal was 8770 fluorescence intensity (a.u.). Regarding “TATATATTTTTCCTATATTCTAAATTCCTATATTGTTTCTCGGAGTCACCTAGTGCAG”, the binding signal is 8110 fluorescence intensity (a.u.). The value for “CTGTATAAATGCGGCACAATCCCCTGTACTGATCAGCGATCGGAGTCACCTAGTGCAG” was 8080 fluorescence intensity (a.u.). The value for “GAGTGTGGCGGGTTCTATCTTTCTTTCCTTTTCTATTTGGCGGAGTCACCTAGTGCAG” was 11800 fluorescence intensity (a.u.).

In the case of “ATTCCGTTTCAATTTTTTGCAGCCTGTTGTGTTCCTCCATCGGAGTCACCTAGTGCAG”, the binding signal was 9090 fluorescence intensity (a.u.). In the case of “GGTGTAGGTCTATTGTCGTCTCTTCTCAAGCGCATTGATCCGGAGTCACCTAGTGCAG” it was 9600 fluorescence intensity (a.u.); in that of “TATGTCTGATAATTCTCCATCCTAGTTTTATCCTTCTTTGCGGAGTCACCTAGTGCAG”, 8460 fluorescence intensity (a.u.); in that of “CTCTCCCCTAGGCCCTCTGACGTAGCCAACTTGCGGAAGCCGGAGTCACCTAGTGCAG”, 8380 fluorescence intensity (a.u.).

As for “AAAGTTATCATACAAAAATCCAATCCTTAATTATTCTCTTCGGAGTCACCTAGTGCAG”, the binding signal was 8330 fluorescence intensity (a.u.). The value for “ACTAGCTACCAGCCTTCTACTACTAACACCCACCCGGCCGCGGAGTCACCTAGTGCAG” was 8200 fluorescence intensity (a.u.); that for “AAATTTAGGTGGAGGGGTGTGGGCGGTTTCGTGCAAAAATCGGAGTCACCTAGTGCAG” was 19100 fluorescence intensity (a.u.). The value for “GATCCTGTTCTTCGCATCCATCCATTGCCGCTGGTCGCACCGGAGTCACCTAGTGCAG” was 10900 fluorescence intensity (a.u.); that for “TTTTGTATATTTATTTTTTAAAAACGTATCTTTAGCAGTTCGGAGTCACCTAGTGCAG” was 8660 fluorescence intensity (a.u.). In the case of “TGTCATTTTCTATTTTAGTCCTCATATTTTGTAATTTTTACGGAGTCACCTAGTGCAG” it was 9390 fluorescence intensity (a.u.); in that of “TGGTACACTGAAATTTTTTTCTTCTTGATCCCCTGGTCTTCGGAGTCACCTAGTGCAG”, 8840 fluorescence intensity (a.u.); in that of “TCACGCCGGTTCGTTTTCACTCCGTTTTCGGTTTCGATAACGGAGTCACCTAGTGCAG”, 8560 fluorescence intensity (a.u.).
